Source: patent publication US6369101B1, “Therapeutic method to treat herpes virus infection” (Regents of the University of Minnesota, priority 1999, dated 2002)
Entries after “also recorded” stand apart in the source; their conditions may differ. At least one structure is not confirmed: it was looked up by name or label, or the drawing left a doubt.

Legend:
HSV-2 strain MS = experiment: CPE inhibition assay, HSV-2 MS in human foreskin fibroblast cells; assay type: cell-based, herpes simplex virus type 2; settings: HFF cells, listed as allobetulin
Procedure: Stock solutions of the compounds used for the testing of antiviral activity against HSV-1 and HSV-2 were prepared in distilled water, filtered through 0.2 μm filter (Acrodisco®, Gelman Sciences, USA) and stored at room temperature until used.
(§1) Human laryngeal epithelial carcinoma cells (HEp-2, ATCC, Rockville, Md.) were used for testing of antiviral compounds by cytopathic effect (CPE) inhibition and plaque reduction assay. Primary human foreskin fibroblast cells (HFF) obtained from Dr. E. R. Kern (Department of Pediatrics, University of Alabama Medical School, 309 Bevill Biomedical Research Building, 845 19th Street South, Birmingham, Ala., 35294-2170), were used for cytopathic effect (CPE) inhibition assay. […]
(§2) The antiviral activity of the test compounds was determined against HSV-1 strain F, HSV-2 strain G (ATCC), HSV-1 strain E-377 and HSV-2 strain MS (Dr. E. R. Kern, see above), CMV strain AD 169 (NIH), HCMV (NIH), MCMV (NIH), and VZV strain Ellen (NIH). […]
(§3) Low passage HFF cells were seeded into 96-well tissue culture plates 24 hours prior to use at a cell concentration of 2.5×10^4 cells per ml in 0.2 ml of DMEM supplemented with 10% fetal calf serum. […] The virus induced cytopathic effect (CPE) was monitored microscopically every day. […]

HSV-1 strain F = experiment: CPE inhibition, HSV-1 strain F in HEp-2 cells; assay type: cell-based, herpes simplex virus type 1; settings: qualitative CPE inhibition assay
Description: as §1, §2, §3

HSV-2 strain G = experiment: CPE inhibition, HSV-2 strain G in HEp-2 cells; assay type: cell-based, herpes simplex virus type 2; settings: qualitative CPE inhibition assay
Description: as §1, §2, §3

HSV-1 (E377) [1] = experiment: Cutaneous HSV-1 infection in rats, topical ointment; assay type: in vivo, rat; settings: topical ointment (2% betulin, 2% allobetulin, 5% Acyclovir) twice daily for 3 days from 18 hours after infection
HSV-2 (MS Strain) [2] = experiment: Cutaneous HSV-2 infection in rats, topical ointment; assay type: in vivo, rat; settings: topical 2% ointment twice daily for 3 days
HSV-1 (E377) [3] = experiment: Cutaneous HSV-1 infection in guinea pigs, topical ointment; assay type: in vivo, guinea pig; settings: topical ointment (2% betulin, 2% allobetulin, 5% Acyclovir) twice daily for 3 days
HSV-2 (MS strain) [4] = experiment: Vaginal HSV-2 (MS) infection in guinea pigs, topical ointment; assay type: in vivo, guinea pig; settings: 2% ointment twice daily for 3 days beginning 18 hours after infection

CC1(C)CCC23CC[C@]4(C)C(CCC5[C@@]6(C)CCC(O)C(C)(C)C6CC[C@]54C)C2C1OC3 (stereo partly drawn) [Allobetulin, 3β-hydroxy-19αH-19,28-epoxy-oleanane]
anti HSV-2 activity (in words) (HSV-2 strain MS): significant anti HSV-2 activity; also recorded: significantly more effect against HSV-2
anti HSV-1 activity (in words) (HSV-1 strain F): significant anti HSV-1 activity
anti HSV-2 activity (in words) (HSV-2 strain G): significant anti HSV-2 activity
effect on cutaneous HSV-1 infection (in words) (HSV-1 (E377) [1]): moderate effect
effect on cutaneous HSV-2 infection (in words) (HSV-2 (MS Strain) [2]): moderate effect
effect on cutaneous HSV-1 infection (in words) (HSV-1 (E377) [3]): moderate effect
effect on vaginal HSV-2 infection (in words) (HSV-2 (MS strain) [4]): moderate effect
